Test results reported in PMC5844867.
These are yes or no findings as the source states them, for the method shown. In cells and extracts the contact can be indirect. Here binding means that the protein was enriched with, or labelled near, the bait; the list need not be complete. Blank lines part the entries; values can stand above or below the molecule they belong to.

Chains of the proteins cited; added tags and fusions are not shown. Residues count along the entry.
UniProt Q60631, residues 60-152: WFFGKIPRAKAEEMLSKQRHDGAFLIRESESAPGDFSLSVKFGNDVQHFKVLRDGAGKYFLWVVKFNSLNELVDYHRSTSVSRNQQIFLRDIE
UniProt P11912, residues 33-226: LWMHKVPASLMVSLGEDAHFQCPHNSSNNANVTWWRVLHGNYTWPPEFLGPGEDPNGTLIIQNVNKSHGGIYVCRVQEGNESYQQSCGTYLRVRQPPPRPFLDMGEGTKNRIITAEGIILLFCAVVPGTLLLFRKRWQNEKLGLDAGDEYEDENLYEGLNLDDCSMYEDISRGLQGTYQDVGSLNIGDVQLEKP
UniProt P62993: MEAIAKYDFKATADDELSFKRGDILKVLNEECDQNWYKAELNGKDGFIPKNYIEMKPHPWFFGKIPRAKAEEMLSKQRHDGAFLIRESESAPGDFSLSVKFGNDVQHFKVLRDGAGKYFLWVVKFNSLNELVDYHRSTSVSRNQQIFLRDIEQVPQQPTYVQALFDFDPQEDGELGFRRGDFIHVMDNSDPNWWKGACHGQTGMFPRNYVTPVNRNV
UniProt P20273, residues 20-847: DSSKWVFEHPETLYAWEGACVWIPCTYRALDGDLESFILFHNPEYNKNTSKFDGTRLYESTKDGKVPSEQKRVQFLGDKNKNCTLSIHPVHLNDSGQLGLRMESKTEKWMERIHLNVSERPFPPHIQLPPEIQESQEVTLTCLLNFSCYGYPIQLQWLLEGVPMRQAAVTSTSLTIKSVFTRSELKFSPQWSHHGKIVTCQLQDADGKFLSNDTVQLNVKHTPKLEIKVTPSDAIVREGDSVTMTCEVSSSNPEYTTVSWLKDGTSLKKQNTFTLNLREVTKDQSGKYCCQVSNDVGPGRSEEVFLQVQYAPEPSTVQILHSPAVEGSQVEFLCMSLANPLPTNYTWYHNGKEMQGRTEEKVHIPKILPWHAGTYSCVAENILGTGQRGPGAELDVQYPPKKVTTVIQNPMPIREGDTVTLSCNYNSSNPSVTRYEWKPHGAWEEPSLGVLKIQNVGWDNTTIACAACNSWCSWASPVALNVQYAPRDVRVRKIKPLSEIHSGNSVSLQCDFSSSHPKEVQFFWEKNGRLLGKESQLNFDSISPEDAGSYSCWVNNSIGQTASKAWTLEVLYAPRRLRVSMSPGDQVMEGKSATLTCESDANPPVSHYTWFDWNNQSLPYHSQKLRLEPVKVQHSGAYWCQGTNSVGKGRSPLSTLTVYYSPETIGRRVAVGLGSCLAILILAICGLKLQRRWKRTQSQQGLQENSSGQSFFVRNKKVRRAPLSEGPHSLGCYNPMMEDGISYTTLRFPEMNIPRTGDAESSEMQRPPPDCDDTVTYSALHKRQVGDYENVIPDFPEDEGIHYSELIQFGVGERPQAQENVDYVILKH
UniProt Q13588: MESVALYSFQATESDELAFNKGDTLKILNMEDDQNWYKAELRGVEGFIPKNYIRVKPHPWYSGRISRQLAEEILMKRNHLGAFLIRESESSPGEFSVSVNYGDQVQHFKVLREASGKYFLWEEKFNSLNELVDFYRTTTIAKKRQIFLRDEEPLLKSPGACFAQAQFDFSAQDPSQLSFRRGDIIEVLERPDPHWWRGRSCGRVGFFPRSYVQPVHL

Legend:
[1] = molecular target: Grb2 SH2 domain fused to GST (mouse) (UniProt Q60631); assay: affinity purification with mass spectrometry; Grb2 SH2 domain as bait, lysates of DG75 cells activated via their endogenous mIgM-BCR; SILAC; only the target purified
[2] = molecular target: T1, biotinylated human-ε-phospho-ITT peptide (human); assay: affinity purification with mass spectrometry; biotinylated phospho-ITT peptide as bait, streptavidin-sepharose, lysates of human B cells in 1% NP40 lysis buffer, 4 °C; SILAC, with a non-phosphorylated peptide and non-labeled cells as control; only the target purified
T1 sequence (peptide, phosphotyrosine (D(p)YTN); biotin on the N-terminus): RPQTSLDYTNVLQPHA

Molecule: Igα (CD79A) (from UniProt P11912 33-226) (receptor)
binding [1]: binds

Molecule: growth factor receptor-bound 2 (Grb2) (from UniProt P62993 1-217)
binding [2]: binds

B1: Gab1 (protein, UniProt Q13480 1-694)
chain: MSGGEVVCSGWLRKSPPEKKLKRYAWKRRWFVLRSGRLTGDPDVLEYYKNDHAKKPIRIIDLNLCQQVDAGLTFNKKEFENSYIFDINTIDRIFYLVADSEEEMNKWVRCICDICGFNPTEEDPVKPPGSSLQAPADLPLAINTAPPSTQADSSSATLPPPYQLINVPPHLETLGIQEDPQDYLLLINCQSKKPEPTRTHADSAKSTSSETDCNDNVPSHKNPASSQSKHGMNGFFQQQMIYDSPPSRAPSASVDSSLYNLPRSYSHDVLPKVSPSSTEADGELYVFNTPSGTSSVETQMRHVSISYDIPPTPGNTYQIPRTFPEGTLGQTSKLDTIPDIPPPRPPKPHPAHDRSPVETCSIPRTASDTDSSYCIPTAGMSPSRSNTISTVDLNKLRKDASSQDCYDIPRAFPSDRSSSLEGFHNHFKVKNVLTVGSVSSEELDENYVPMNPNSPPRQHSSSFTEPIQEANYVPMTPGTFDFSSFGMQVPPPAHMGFRSSPKTPPRRPVPVADCEPPPVDRNLKPDRKVKPAPLEIKPLPEWEELQAPVRSPITRSFARDSSRFPMSPRPDSVHSTTSSSDSHDSEENYVPMNPNLSSEDPNLFGSNSLDGGSSPMIKPKGDKQVEYLDLDLDSGKSTPPRKQKSSGSGSSVADERVDYVVVDQQKTLALKSTREAWTDGRQSTESETPAKSVK
binding [1]: binds

Continued, values first:

binding [1]: binds
Molecule: CD22 (from UniProt P20273 20-847) (receptor)

binding [2]: binds
Molecule: Grb2-related adaptor protein (GRAP) (from UniProt Q13588 1-217)
